In patent publication US11034685B2, “Aminopyridine derivatives as TAM family kinase inhibitors” (SignalChem Lifesciences Corporation, priority 2013, dated 2021):
The match of structure and compound is tentative.

Amino acid sequences for entries named in this document (tags omitted). Residues count along the entry.
UniProt Q06418, 455-890 limits assumed: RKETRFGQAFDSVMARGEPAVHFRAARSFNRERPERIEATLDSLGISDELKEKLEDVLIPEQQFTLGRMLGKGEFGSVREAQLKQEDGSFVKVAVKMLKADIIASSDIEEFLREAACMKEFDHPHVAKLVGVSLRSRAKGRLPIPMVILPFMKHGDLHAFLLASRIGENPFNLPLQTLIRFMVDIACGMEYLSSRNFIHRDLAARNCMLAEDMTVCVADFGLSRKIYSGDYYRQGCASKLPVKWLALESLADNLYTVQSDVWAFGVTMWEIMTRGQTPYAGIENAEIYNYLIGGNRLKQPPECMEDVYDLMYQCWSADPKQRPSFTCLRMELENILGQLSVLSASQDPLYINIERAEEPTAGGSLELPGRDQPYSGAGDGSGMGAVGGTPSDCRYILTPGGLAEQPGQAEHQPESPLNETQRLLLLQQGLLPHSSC
UniProt P30530, 473-894 limits assumed: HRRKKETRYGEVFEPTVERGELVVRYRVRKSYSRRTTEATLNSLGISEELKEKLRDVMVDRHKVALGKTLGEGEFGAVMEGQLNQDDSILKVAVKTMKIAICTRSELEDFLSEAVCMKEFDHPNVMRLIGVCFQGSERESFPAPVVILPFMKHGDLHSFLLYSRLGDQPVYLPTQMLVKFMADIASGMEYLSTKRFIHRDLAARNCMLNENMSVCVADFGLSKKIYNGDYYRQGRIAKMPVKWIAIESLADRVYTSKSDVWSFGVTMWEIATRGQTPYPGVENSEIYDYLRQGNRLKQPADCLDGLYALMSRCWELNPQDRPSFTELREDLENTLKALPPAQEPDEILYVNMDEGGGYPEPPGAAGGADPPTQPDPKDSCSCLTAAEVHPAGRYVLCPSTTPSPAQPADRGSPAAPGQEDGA
UniProt Q12866, 578-872 limits assumed: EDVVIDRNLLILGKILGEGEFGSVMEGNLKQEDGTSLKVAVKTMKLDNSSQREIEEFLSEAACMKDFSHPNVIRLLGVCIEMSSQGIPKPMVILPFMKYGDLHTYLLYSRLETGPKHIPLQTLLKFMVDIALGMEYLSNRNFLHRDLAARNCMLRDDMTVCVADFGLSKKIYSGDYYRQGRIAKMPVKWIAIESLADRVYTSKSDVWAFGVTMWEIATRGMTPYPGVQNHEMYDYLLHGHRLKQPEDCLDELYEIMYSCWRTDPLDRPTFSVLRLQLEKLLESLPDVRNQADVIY

Key:
[1] = target: Recombinant human Tyro3 (455-end) (Homo sapiens, UniProt Q06418); experiment: Kinase enzymatic activity assay ([33P]-ATP phosphate transfer), Tyro3; details: read-out: IC50 Tyro3; inhibitory activity on Tyro3; class symbols
Description: (§1) Preparation of Active Recombinant Kinase Proteins:
(§2) Recombinant human Tyro3 (455-end, the gene accession number NM_006293), human Axl (473-end, the gene accession number NM_021913) and human Mer (578-872, the gene accession number NM_006343) were independently expressed by baculovirus in Sf9 insect cells using an N-terminal GST tag. The recombinant proteins were stored at −70° C. in a medium containing 50 mM Tris-HCl, pH 7.5, 150 mM NaCl, 10 mM glutathione, 0.1 mM EDTA, 0.25 mM DTT, 0.1 mM PMSF and 25% glycerol. The recombinant proteins were aliquoted into smaller quantities after centrifugation to avoid repeated handling and multiple freeze/thaw cycles for the most favorable performance.
(§3) Preparation of Assay Reagents: […]
(§4) The enzymatic activity of all three kinases was determined as follows. […] After the plate was dried in air, scintillation fluid was added to each well and the radioactivity in each well in CPM was counted by a Microbeta TriLux. The corrected CPM in each test well was determined by subtracting the average value of Blank well values. Percentage of inhibition of the kinase enzymatic activity by the test compound was determined using the following formula: […]
(§5) The IC50 values were determined in a similar way following a serial dilution of the test compound. The percentage of inhibition at each concentration was calculated following the above formula. […]

human Axl (473-end) = human Axl (473-end) (Homo sapiens, UniProt P30530); experiment: Kinase enzymatic activity assay ([33P]-ATP phosphate transfer), Axl; details: read-out: IC50 Axl; inhibitory activity on Axl; class symbols
Description: as §1, §2, §3, §4, §5

human Mer (578-872) = human Mer (578-872) (Homo sapiens, UniProt Q12866); experiment: Kinase enzymatic activity assay ([33P]-ATP phosphate transfer), Mer; details: read-out: IC50 Mer; inhibitory activity on Mer; class symbols
Description: as §1, §2, §3, §4, §5

IC50 [1]: < 500 nM
IC50 (human Axl (473-end)): < 500 nM
IC50 (human Mer (578-872)): 1000 to 10000 nM
Structure (SMILES): CN1CCC(n2cc(-c3cnc(N)c(-c4ccc(-c5ccccc5)o4)c3)cn2)CC1
